These results are taken from patent US20160221948A1, “NITROGEN-CONTAINING SATURATED HETEROCYCLIC COMPOUND” (SUMITOMO CHEMICAL COMPANY, LIMITED, priority 2013, published 2016).

By UniProt entry, the sequences of proteins in these tests, tags left out.
UniProt P31391, whole entry: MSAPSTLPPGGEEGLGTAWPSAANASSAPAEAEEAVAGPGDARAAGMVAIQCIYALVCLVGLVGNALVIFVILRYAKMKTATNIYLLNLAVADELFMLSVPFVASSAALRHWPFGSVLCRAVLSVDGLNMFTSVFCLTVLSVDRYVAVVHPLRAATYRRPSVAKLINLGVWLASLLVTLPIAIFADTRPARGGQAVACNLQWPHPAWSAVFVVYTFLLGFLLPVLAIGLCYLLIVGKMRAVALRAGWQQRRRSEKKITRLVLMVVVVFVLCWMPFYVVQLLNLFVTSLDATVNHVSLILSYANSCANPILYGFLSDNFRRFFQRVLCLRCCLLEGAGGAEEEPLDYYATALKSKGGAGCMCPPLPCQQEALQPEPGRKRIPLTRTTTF

SMILES strings stand for the structures. The match of structure and compound is tentative.

This assay concerns the target human SSTR4 (Homo sapiens, UniProt P31391). Kind of assay: Evaluation of agonist activities using human SSTR4-stably expressing cells (aequorin luminescence). In kind it is cell-based. The settings on record: luminescence signal; 1 μmol/L somatostatin taken as 100%.

Usually EC50 stands for the concentration giving half of the maximal effect. High values mean lower potency in that assay, low ones higher potency in that assay. Compound `CN1CCC[C@H](C(=O)NC(C)(C)c2c(Cl)cccc2Cl)C1` had an EC50 of 6.4 nM.
